According to US20260226102A1 (priority 2022, published 2026):

Experiment: general procedure: hybrid (solid and solution phase) peptide synthesis; glycine pre-loaded CTC resin; Oxyma/DIC
Conditions: coupling step

Which step yield does the source give for Fmoc-G-P-S-S-G-A-P-P-S-CONH2 here?
The step yield was 70% yield.
